Test results from PubChem BioAssay AID489039 (National Center for Advancing Translational Sciences (NCATS), 2010).
Values joined by “and” are separate entries in the source; they are usually repeats but may differ in a detail not shown here. Identical values can stand only once. Inconclusive means that the source gave no clear call. Such entries were picked first, then a sample of the others. Where the call is inconclusive, the potency comes from a doubtful curve fit. Active and inactive are the calls of the source. Calls follow the shape of the dose curve; as a rule, active = well fitted inhibition curve with a large enough effect; inconclusive = small, poorly fitted or top-dose-only effect, or effect the other way; inactive = no such curve, though single readings can be large or run the other way.

Each molecule was assayed against Nuclear receptor ROR-alpha (Homo sapiens) (UniProt P35398) (assay: ROR alpha selectivity assay for inhibitors of ROR gamma transcriptional activity). Details: Drosophila S2 Gal4-RORalpha UAS-luciferase, 20 h; activity change, negative = inhibition: at 92.2 µM (top of the series).
Method in brief: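 Luciferase signal, measured 20 h after 700 uM final copper sulfate induction at ambient temperature, from S2 insect cells expressing a Gal4-RORalpha transactivation-domain fusion and UAS reporter. Compounds added 1 h before induction.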

SMILES	Potency	activity change, negative = inhibition
COc1cc(OC)c(C(CC(=O)N2CC(C)CC(C)C2)c2ccc3c(c2)OCO3)c(OCC#N)c1 (centres undefined)	inconclusive: 0.0081 µM [activator, full curve, poor fit]	–
C[C@H]1O[C@@H](O[C@H]2[C@@H](O)C[C@@H](O[C@H]3[C@@H](O)C[C@H](O[C@H]4CC[C@@]5(C)[C@H](CC[C@@H]6[C@@H]5CC[C@]5(C)[C@@H](C7=CC(=O)OC7)CC[C@]65O)C4)O[C@@H]3C)O[C@@H]2C)C[C@H](O)[C@@H]1O	inconclusive: 1.02 µM [inhibitor, full curve, poor fit]	–
COc1ccc(C(CC(=O)N2CCCC(C)C2)c2ccccc2)cc1 (centres undefined)	inactive	–
COc1cc(O)c(C(CC(=O)N2CCCC(C)C2)c2ccc3c(c2)OCO3)c(OC)c1 (centres undefined)	inconclusive: 72.4 µM [activator, single point] and inconclusive: 32.3 µM [activator, partial curve, poor fit]	–
COc1ccc(CNC(=O)[C@H](Cc2ccccc2)NC(=O)C2CCN(C(=O)[C@@H]3CCCN3C(=O)OC(C)(C)C)CC2)cc1	inactive	–
COc1cc(O)c(C(CC(=O)N2CCCC(C)C2)c2ccc(C)cc2)c(OC)c1 (centres undefined)	inconclusive: 0.0724 µM [activator, full curve, poor fit]	–
COc1cc(O)c(C(CC(=O)N2CC(C)OC(C)C2)c2ccc3c(c2)OCO3)c(OC)c1 (centres undefined)	inconclusive: 3.63 µM [activator, partial curve, poor fit]	–
CC1=C(\C=C/C(C)=C/C=C\C(C)=C\C(=O)O)C(C)(C)CCC1	–	inactive: 18.6% [at 20 µM]
C=C1Nc2c(-c3ccc(F)cc3)cnn2C(N)=C1c1ccccc1	inconclusive: 0.512 µM [inhibitor, full curve, poor fit]	–
COc1cc(O)c(C(CC(=O)N2CCC(C)CC2)c2ccc3c(c2)OCO3)c(OC)c1 (centres undefined)	inconclusive: 57.5 µM [activator, single point] and inactive	–
O=S(=O)(c1ccc(NC(=S)N/N=C/c2ccc(Oc3ccccc3)cc2)cc1)N1CCOCC1	active: 2.57 µM	–
CC(C)(C)OC(=O)N1CCC[C@H]1C(=O)N1CCC(C(=O)N[C@H](Cc2ccccc2)C(=O)NCc2ccc(F)cc2)CC1	inconclusive: 3.23 µM [inhibitor, partial curve, poor fit]	–
O=C(NC(=S)Nc1nc(-c2ccccc2)cs1)c1cccnc1	active: 32.3 µM	–
COc1cc(O)c(C(CC(=O)N2CCC(C)CC2)c2ccc(OC)c(OC)c2)c(OC)c1 (centres undefined)	inconclusive: 0.911 µM [activator, full curve]	–
CCCCNC(=O)CC(c1ccc2c(c1)OCO2)c1c(O)cc(OC)cc1OC (centres undefined)	inconclusive: 40.7 µM [activator, partial curve, poor fit]	–
COc1cc(O)c(C(CC(=O)N2CCCC(C)C2)c2ccc(OC)c(OC)c2)c(OC)c1 (centres undefined)	inconclusive: 45.7 µM [activator, partial curve, poor fit]	–
COc1cc(O)c(C(CC(=O)N2CCOCC2)c2ccc3c(c2)OCO3)c(OC)c1 (centres undefined)	inconclusive: 9.11 µM [activator, full curve, poor fit]	–
COc1ccc(-c2c[n+]3c(n2-c2ccc(C)cc2)CCCCC3)cc1	active: 10.2 µM	–
COc1cc(O)c(C(CC(=O)N2CC(C)CC(C)C2)c2ccc(C)cc2)c(OC)c1 (centres undefined)	inconclusive: 57.5 µM [inhibitor, partial curve, poor fit]	–
CC(C)(C)c1ccc(S(=O)(=O)Nc2ccc(C(O)(C(F)(F)F)C(F)(F)F)cc2)cc1	active: 18.2 µM	–
CC1CCCN(C(=O)CC(c2ccc3c(c2)OCO3)c2ccc(I)cc2O)C1 (centres undefined)	inconclusive: 16.2 µM [activator, full curve]	–
COc1cc(O)c(C(CC(=O)N2CC(C)CC(C)C2)c2ccc3c(c2)OCO3)c(OC)c1 (centres undefined)	inconclusive: 1.02 µM [activator, full curve, poor fit] and inconclusive: 45.7 µM [activator, partial curve]	–
COc1cc(O)c(C(CC(=O)N2CCc3ccccc3C2)c2ccc3c(c2)OCO3)c(OC)c1 (centres undefined)	inconclusive: 72.4 µM [activator, single point]	–
CC(C)(C(=O)Nc1nccs1)C(c1ccccc1)c1ccc(O)cc1 (centres undefined)	inconclusive: 20.4 µM [inhibitor, single point]	–
